The values below come from the supplement of paper PMC5949888.

Most values lie at the floor of the assay. Slopes are relative: functional sequences can read slightly below zero.

In this data set the test system is Saccharomyces cerevisiae PS128 hsf1 delta, HSF1(1-493) fusion. Kind of data set: growth estimate (transactivation domain function in HSF1 fusion, heat-shock survival) (a.u. (slope of normalised read count over time)); higher = stronger growth at 37°C, i.e. more transactivation activity. The settings on record: library: random library.
Regarding LMRSCV, the growth estimate is under -0.25.
Under VSSLADYLGASTLGRVLENH stands under -0.25.
Take YGSP: the growth estimate is under -0.25.
Under EGFLGTSCVFT stands under -0.25; under FRGKRGTVWCFKQLVYRSFD, under -0.25.
Under FLVKGDSKSFHCAATSTSDC stands under -0.25; under GHTTS, under -0.25.
Under ELLLVKVPKVS stands under -0.25; under PRIPERNLPFNGLRLVWTRA, under -0.25.
On to CRCPEA, for which the growth estimate is under -0.25.
Under LTKRTRWHTMLLSCGS stands under -0.25; under RFLHLARNIGDWLR, under -0.25.
In the case of TQSVAISDNPGSQGY, the growth estimate was under -0.25.
Regarding VWCSSETDSTCPCAVRYLQG, the growth estimate is under -0.25.
Under LGPAGERLRS stands under -0.25; under TAASS, under -0.25; under LFAKDPLLNMSCVAHTANPS, -0.241.
Regarding PEYPSGVLRRLCVFSTLQPY, the growth estimate is under -0.25.
For ESRYND, the growth estimate was under -0.25.
Under ELYKNPGMYSYFRVLLDTGL stands under -0.25; under GRKASLGGLPRSSSPYAVTD, under -0.25; under TACVHARDTTIVRLYCAY, under -0.25.
Under LWN stands under -0.25; under DREMSLRPLTSIMASVSP, under -0.25; under KGPVT, under -0.25.
Turning to LAVGTLLKKVRMPSPQTGYE, the growth estimate was under -0.25.
Under YLVGV stands under -0.25.
Under NPDLVGQYFFTSRLASSTAV stands under -0.25; under NNGHFHQVSGDVKKVRLEPC, under -0.25; under RVSTLAGDAR, under -0.25.
Consider GGGAFDQFSEQHCTSWREQF, for which the growth estimate is under -0.25.
For IDVNQQVGVLRRVLTRHESA, the growth estimate was under -0.25.
Under NQPLTSTPTGPRRTSNARCL stands -0.246; under TAETRIQDGPGRICMPWSLD, under -0.25; under PPPMGQDRQEFGIPVSVPGI, under -0.25.
On to RRTLAGNRAVW, for which the growth estimate was -0.245.
For AALYSGGRQVTL, the growth estimate is under -0.25.
For the substance ETDRLATNRIWWRTMGLLQA, the growth estimate was under -0.25.
Under VADRVKSTYVRVQSRLPRPA stands under -0.25; under DELLRTGRH, under -0.25.
Under ITRGDVVEERHTCDAG stands under -0.25; under ALLDRDGITMLVA, under -0.25.
Take GEFGGRRMLPRMSERQATHR: the growth estimate is under -0.25.
With SAYRWIIRMGYRRQ, the growth estimate is -0.231.
Take IFVLFRKSQSCIKSL: the growth estimate is under -0.25.
Under YSYVRDLPPQLSTGWETRKY stands under -0.25; under VVRCVG, under -0.25; under LNTHVSPQCGSAA, under -0.25.
Under GKT stands under -0.25.
With VCGRLQA, the growth estimate was under -0.25.
Consider ARIPRQLPFLPKIGTYIIQD, for which the growth estimate is under -0.25.
Under WLVACRELTPAAFGQIAHAP stands under -0.25.
Under RGVQSSELPSLTSITLV stands under -0.25.
Under QEVHAYADGRSYI stands under -0.25; under PTSGWTTDG, under -0.25.
On to LKYVRSQQRNNVANARTWVH, for which the growth estimate was under -0.25.
Under LICGNTALPRCQSGSSRHRR stands under -0.25; under QADFSQAPGVGG, under -0.25.
Regarding TLTRLRQGPKLRAAAISEGP, the growth estimate was under -0.25.
Under DPTAKDLSLRHGPT stands under -0.25.
With MRDVSEQVEGWGIRSFPFRR, the growth estimate is under -0.25.
Under LMGRYPFTIRIVMPSNLLSR stands under -0.25; under STIMGWMALDGPLCLLRAPR, under -0.25; under VVLVNKLSPTEGQLHGYGKR, under -0.25.
Under VGLSCFGPLFG stands under -0.25; under GLDWGRRLVAGARSRLTLQP, under -0.25; under NLAHQR, under -0.25.
Under GFVLCMRVLPPTLLLTARQE stands under -0.25.
Consider SFAQNARHISEEDRDAAEKF, for which the growth estimate was under -0.25.
Under PRAYDVLSSCPWPPAGGSNR stands under -0.25; under GVLLRRVRVLCDRRLSFAVV, under -0.25.
Take CLSDAGHSAW: the growth estimate is under -0.25.
Under NGIFSYGFTVGETSHSETR stands under -0.25.
For the substance LTSTDGPTTMHSGSPCAAAF, the growth estimate is under -0.25.
As to PESLLTLDFNGHGPQCPIAN, the growth estimate was under -0.25.
With GGLKTA, the growth estimate is -0.237.
Consider YGGTGPWTRQIKKVTATRDI, for which the growth estimate was under -0.25.
As for ARYHTKSRENVPAKCRPKKV, the growth estimate was under -0.25.
Under VGDVTTERRGIARVSLPAWV stands under -0.25; under CRSFSDRVRCGSGLR, -0.25.
Under TPGREIIPITSPVLRGRTKH stands under -0.25; under SVQPKPFPLRSPNICRFISA, under -0.25.
Under PECREP stands under -0.25.
For LTALGRP, the growth estimate is under -0.25.
Take DSLCFPSYRMLMYDEMKFLR: the growth estimate is under -0.25.
As to RLTI, the growth estimate was under -0.25.
Under SRSPVESLRPHAQG stands under -0.25; under LDRDGRDTKAYRTCCSTGSI, under -0.25.
Under GMN stands under -0.25; under KLAGRGINVLVRR, under -0.25; under TATVSHGSPGEKFVRRFSCT, under -0.25.
For ERGYSSAAAKPKQSHKRLSR, the growth estimate is under -0.25.
Under IRGPRQLARSLAFGSTAGGS stands under -0.25; under RGRKRLKRYSIPWG, under -0.25.
Under MVVR stands under -0.25.
For the substance FRRVRHQLDRYCALPHLEPL, the growth estimate is under -0.25.
IKLKGRVRCLDTPRSTGSVS: the growth estimate was under -0.25.
Under HHESWFSKRPASGGLPVVLT stands under -0.25; under AASSTPFYDIQE, under -0.25; under CWCRI, under -0.25.
Under HNTRQVKTVRLARPLLRSFR stands under -0.25; under RLSTTESERGCVLTVPGLGV, under -0.25; under KYFLYPREDNGIPLKLSSRN, under -0.25.
With DHRQNVRRVLYGYAVGRRLA, the growth estimate is under -0.25.
Under VGSPSQISCIMRERFLLQR stands under -0.25; under ACQASRV, under -0.25; under QPSALHCVARSVSPRQNTSR, under -0.25.
For the substance PVGRARSTYPTPDNFSSS, the growth estimate is under -0.25.
With DHPGRKLKCVGFRTIRYIPA, the growth estimate was under -0.25.
Regarding LKLDSR, the growth estimate was under -0.25.
Under VSKGESSPNYVSRETERPES stands under -0.25.
Regarding MWI, the growth estimate is under -0.25.
Under SEPLVLRNPNMLGDAPESRH stands under -0.25.
